Results as given in paper PMC5750328, “Study on oligomerization of glutamate decarboxylase from Lactobacillus brevis using asymmetrical flow field-flow fractionation (AF4) with light scattering techniques” (Analytical and Bioanalytical Chemistry, 2017).
No constants are given. Whether binding was seen depends on the method and setting. Some results given as binding are weak or reduced against the parent protein; the word gives no strength.

Target: glutamate decarboxylase (LbGadB) from Lactobacillus brevis DSM 1269, recombinant (Lactobacillus brevis DSM 1269) (UniProt A9ZM78)
Experiment: dynamic light scattering (DLS); self-association; hydrodynamic diameter at pH 7 with NaCl, KCl, CaCl2 or (NH4)2SO4 at 0-1.2 M, at 25, 37, 45 and 60 °C; 384-well plate; both purified

B1: glutamate decarboxylase (LbGadB) from Lactobacillus brevis DSM 1269, recombinant (enzyme, UniProt A9ZM78 1-480, looked up)
chain: MMNKNDQETQQMINNVDLEKTFLGSVEAGQSLPTYTLPDDPMAPDVAAQLVEHYRLNEAKANQNLATFCTTQMEPQADELMKNALNTNAIDKSEYPKTAAMENYCVSMIAHLWGIPDNEKIYDDFIGTSTVGSSEGCMLGGLALLHSWKHRAKAAGFDIEDLHSHKPNLVIMSGYQVVWEKFCTYWNVEMRQVPINGDQVSLDMDHVMDYVDENTIGIIGIEGITYTGSVDDIQTLDNLVTEYNKTATMPVRIHVDAAFGGLFAPFVDGFNPWDFRLKNVVSINVSGHKYGMVYPGLGWIVWRHDTADILPAEMRFQVPYLGKTVDSIAINFSHSGAHISAQYYNFIRFGLSGYKTIMQNVRKVSLKLTAALKTYGIFDILVDGSQLPINCWKLADDAPVGWTLYDLESELAKYGWQVPAYPLPKNRDDVTISRIVVRPSMTMTIADDFLDDLKLAIDGLNHTFGVTTTVDQDNKTTVRS
notes: glutamate decarboxylase LbGadB of Lactobacillus brevis DSM 1269; gene amplified from genomic DNA with a forward primer that holds the ATG (NdeI site) and a reverse primer with an XhoI site, cloned in pET21b; gene deposited as GenBank KX417371; Oligomeric state depends on pH: dimer at pH 7-8, hexamer at pH 6, so copies is left empty; the whole gene appears to have been cloned; Cloning NdeI/XhoI in …
binding: binds
